# Further values from the same series stand in other lists.
# Test system: library of 8,380 IKZF3 degrons (ZF-eGFP/mCherry reporter) in Jurkat cells
# Assay: Pooled library screen (FACS, NGS, limma voom LogFC of positive vs negative read counts)
# Format: cell-based, human
# Method: A library of 8,380 IKZF3 degrons was cloned into pLVX-Sprout to create the eGFP/mCherry protein degradation reporter plasmid pool. A lentivirus pool was then generated using the Lenti-X lentiviral vector production method.
# Jurkat cells were transduced at a multiplicity of infection of <0.3 with the lentivirus vector library in order to maximise the number of cells with a single integration. Transductions were carried out in 6 well TC-treated cell culture dishes (Falcon) with 3×10^6 cells per well. Cells were incubated for 2 days at 37° C. and 5% CO2 before the supernatant was removed and replaced with fresh media. 6 days post-transduction, mCherry+ cells were isolated via FACS using the FACS Aria Fusion (BD) in a buffer containing PBS (Gibco), 2 mM EDTA (Gibco), 25 mM HEPES (Sigma) and 1% BSA (Sigma). 8 days later, cells were treated with DMSO or a thalidomide analog for 18 hours at 37° C. and 5% CO2. mCherry+GFPlow and NOT(mCherry+GFPlow) cells were sorted by FACS using the FACS Aria Fusion (BD). DMSO treated cells were used to set the mCherry+GFPlow gate and dead cells were excluded from sorting by staining cells with 1 μg/mL DAPI (ThermoFisher). gDNA was isolated using the Maxwell RSC 48 (Promega). gDNA from cells that were unsorted and untreated were also isolated to determine the library representation on the day of compound treatment. Throughout the screen >600× coverage of the library was maintained. 3 biological replicates were carried out with a new transduction taking place each time.
# A two-step PCR was used where the first PCR (PCR1) amplified the integrated degron sequence from gDNA and the second PCR (PCR2) added Illumina adaptors and barcodes to permit multiplexing. See Supp F for PCR1 and PCR2 primers. Q5 Hot Start High-Fidelity 2× Master Mix (New England Biolabs) was used for both PCRs. Sufficient gDNA was amplified in PCR1 in order to maintain >600× coverage and amplicons were purified using solid phase reversible immobilization (SPRI) beads (Beckman Coulter). Purified PCR1 products were analysed on the Tapestation 4200 (Agilent) to confirm purity prior to proceeding to PCR2. Sufficient PCR1 product was amplified in PCR2 in order to maintain >600× coverage and amplicons were run on a 2% agarose TAE gel. Target bands were excised and purified using the NucleoSpin Gel and PCR Clean-up Kit (Machery Nagel). Amplicons were analysed on the Tapestation 4200 and quantified using Qubit dsDNA HS kit (ThermoFisher). PCR products were pooled and sequenced as paired-reads on the NovaSeq (Illumina) using a SP2 200 cycles kit (Illumina).
# Count distributions, percentage of read mapping, library coverage and replicate correlation per sample were assessed for QC purposes.
# To carry out the library screen, we used the same plasmid construct as in our earlier flow cytometry assays, but pooling all 8,380 mutants together into one Jurkat population, ensuring a copy number of one plasmid per cell (FIG. 4B). […] These GFP-negative cells were then separated from the remaining GFP-positive population using fluorescence activated cell sorting (FACS). These two populations were then sequenced and the relative abundance of every mutant in both populations compared to provide a log FC value for each mutant sequence. This value indicated how frequently a sequence is observed in the GFP-negative population relative to the GFP-positive population, and therefore how effective a degron it is for that particular IMID compound.
structure (smiles),measurement,setting,value
O=C1CCC(N2C(=O)c3ccc(N4CCOCC4)cc3C2=O)C(=O)N1 (stereo not drawn) [B03],B03_logFC,"Degron-ID 1190, SEQ ID NO 4245, 46F_47F_49P_50V_52G_53A_54M_55F_67L_",2.303
same,B03_logFC,"Degron-ID 1192, SEQ ID NO 3903, 46F_47F_49P_50V_52G_53A_54P_55F_67L",2.843
same,B03_logFC,"Degron-ID 1194, SEQ ID NO 3673, 46F_47F_49P_50V_52G_53A_54R_55F_67L_",3.29
same,B03_logFC,"Degron-ID 1195, SEQ ID NO 3713, 46F_47F_49P_50V_52G_53A_54S_55F_67L_",3.181
same,B03_logFC,"Degron-ID 1261, SEQ ID NO 3847, 46F_47G_49E_50I_52G_53A_54C_55F_67L",2.928
same,B03_logFC,"Degron-ID 1274, SEQ ID NO 4270, 46F_47G_49E_50I_52G_53A_54R_55F_67L_",2.263
same,B03_logFC,"Degron-ID 1275, SEQ ID NO 4349, 46F_47G_49E_50I_52G_53A_54S_55F_67L_",2.123
same,B03_logFC,"Degron-ID 1300, SEQ ID NO 4285, 46F_47G_49E_50V_52G_53A_54A_55F_67L_",2.243
same,B03_logFC,"Degron-ID 1310, SEQ ID NO 4367, 46F_47G_49E_50V_52G_53A_54M_55F_67L_",2.092
same,B03_logFC,"Degron-ID 1315, SEQ ID NO 4263, 46F_47G_49E_50V_52G_53A_54S_55F_67L_",2.274
same,B03_logFC,"Degron-ID 1321, SEQ ID NO 4371, 46F_47G_49N_50I_52G_53A_54C_55F_67L_",2.085
same,B03_logFC,"Degron-ID 1381, SEQ ID NO 3917, 46F_47G_49P_50I_52G_53A_54C_55F_67L",2.82
same,B03_logFC,"Degron-ID 1390, SEQ ID NO 4307, 46F_47G_49P_50I_52G_53A_54M_55F_67L_",2.191
same,B03_logFC,"Degron-ID 1394, SEQ ID NO 4259, 46F_47G_49P_50I_52G_53A_54R_55F_67L_",2.278
same,B03_logFC,"Degron-ID 1395, SEQ ID NO 4255, 46F_47G_49P_50I_52G_53A_54S_55F_67L_",2.283
same,B03_logFC,"Degron-ID 1421, SEQ ID NO 3721, 46F_47G_49P_50V_52G_53A_54C_55F_67L_",3.165
same,B03_logFC,"Degron-ID 1427, SEQ ID NO 4350, 46F_47G_49P_50V_52G_53A_54I_55F_67L_",2.123
same,B03_logFC,"Degron-ID 1430, SEQ ID NO 4374, 46F_47G_49P_50V_52G_53A_54M_55F_67L_",2.082
same,B03_logFC,"Degron-ID 1434, SEQ ID NO 4359, 46F_47G_49P_50V_52G_53A_54R_55F_67L_",2.105
same,B03_logFC,"Degron-ID 1452, SEQ ID NO 3898, 46F_47H_49D_50I_52G_53A_54P_55F_67L",2.854
same,B03_logFC,"Degron-ID 1500, SEQ ID NO 3802, 46F_47H_49E_50I_52G_53A_54A_55F_67L_",3.003
same,B03_logFC,"Degron-ID 1540, SEQ ID NO 3879, 46F_47H_49E_50V_52G_53A_54A_55F_67L",2.886
same,B03_logFC,"Degron-ID 1541, SEQ ID NO 4274, 46F_47H_49E_50V_52G_53A_54C_55F_67L_",2.254
same,B03_logFC,"Degron-ID 1552, SEQ ID NO 3720, 46F_47H_49E_50V_52G_53A_54P_55F_67L_",3.169
same,B03_logFC,"Degron-ID 1560, SEQ ID NO 4250, 46F_47H_49N_50I_52G_53A_54A_55F_67L_",2.296
same,B03_logFC,"Degron-ID 1572, SEQ ID NO 3801, 46F_47H_49N_50I_52G_53A_54P_55F_67L_",3.008
same,B03_logFC,"Degron-ID 1575, SEQ ID NO 4425, 46F_47H_49N_50I_52G_53A_54S_55F_67L_",2.015
same,B03_logFC,"Degron-ID 1620, SEQ ID NO 3938, 46F_47H_49P_50I_52G_53A_54A_55F_67L",2.78
same,B03_logFC,"Degron-ID 1628, SEQ ID NO 4366, 46F_47H_49P_50I_52G_53A_54K_55F_67L_",2.092
same,B03_logFC,"Degron-ID 1633, SEQ ID NO 3926, 46F_47H_49P_50I_52G_53A_54Q_55F_67L",2.797
same,B03_logFC,"Degron-ID 1672, SEQ ID NO 3892, 46F_47H_49P_50V_52G_53A_54P_55F_67L",2.863
same,B03_logFC,"Degron-ID 1674, SEQ ID NO 4297, 46F_47H_49P_50V_52G_53A_54R_55F_67L_",2.228
same,B03_logFC,"Degron-ID 1680, SEQ ID NO 4254, 46F_47I_49D_50I_52G_53A_54A_55F_67L_",2.29
same,B03_logFC,"Degron-ID 1685, SEQ ID NO 4405, 46F_47I_49D_50I_52G_53A_54G_55F_67L_",2.033
same,B03_logFC,"Degron-ID 1693, SEQ ID NO 4312, 46F_47I_49D_50I_52G_53A_54Q_55F_67L_",2.187
same,B03_logFC,"Degron-ID 1732, SEQ ID NO 3768, 46F_47I_49D_50V_52G_53A_54P_55F_67L_",3.083
same,B03_logFC,"Degron-ID 1740, SEQ ID NO 3835, 46F_47I_49E_50I_52G_53A_54A_55F_67L_",2.951
same,B03_logFC,"Degron-ID 1741, SEQ ID NO 4423, 46F_47I_49E_50I_52G_53A_54C_55F_67L_",2.016
same,B03_logFC,"Degron-ID 1748, SEQ ID NO 4378, 46F_47I_49E_50I_52G_53A_54K_55F_67L_",2.073
same,B03_logFC,"Degron-ID 1753, SEQ ID NO 3893, 46F_47I_49E_50I_52G_53A_54Q_55F_67L",2.862
same,B03_logFC,"Degron-ID 1780, SEQ ID NO 3804, 46F_47I_49E_50V_52G_53A_54A_55F_67L_",3.001
same,B03_logFC,"Degron-ID 1781, SEQ ID NO 4361, 46F_47I_49E_50V_52G_53A_54C_55F_67L_",2.101

# — patent US20260284208A1, “SYSTEM” (Oxford University Innovation Limited, priority 2023, published 2026)
